Measurements reported in the supplement of paper PMC7858590.
± gives the standard deviation of the averaged measurements. Over roughly 3,800 compounds, “cell shape (eccentricity) Z-score vs DMSO control” has its median near 1.1; the lowest 2% begin near -4.7. This is one part of the list.

These molecules were tested on human monocyte-derived macrophages (M0) (assay: cell shape (eccentricity) Z-score vs DMSO control; higher = more elongated, M2-like morphology). Conditions: 20 µM; 24 h; macrophage state: M0 (M-CSF).

Row | Compound | cell shape (Z-score)
1 | CC(/C=C/C1(O)C(C)CC(O)CC1(C)C)OC1OC(CO)C(O)C(O)C1O (centres undefined) | 0.819
2 | COc1ccc2nc(S(=O)Cc3ncc(C)c(OC)c3C)[nH]c2c1 (centres undefined) | 3.27
3 | CCn1cc(C(=O)O)c(=O)c2cc(F)c(N3CCN(C)CC3)cc21 | -1.21
4 | NS(=O)(=O)c1cccc2c1c([N+](=O)[O-])cc1[nH]c(=O)c(=O)[nH]c12 | -0.858
5 | CC1OC(OC(=O)C2=CC3CC(C)(C)CC34C(C)OC(=O)CC24)C(O)C(O)C1O (centres undefined) | 0.307
6 | CC(C)CC(=O)c1c(O)cc(O)cc1OC1OC(COC(=O)c2cc(O)c(O)c(O)c2)C(O)C(O)C1O (centres undefined) | 1.59
7 | CC1=C(CO)CC(C(C)C2CCC3C4CC=C5CC(OC6OC(COC7OC(CO)C(O)C(O)C7O)C(O)C(O)C6O)CC(O)C5(C)C4CCC23C)OC1=O (centres undefined) | -0.103
8 | CCOC(=O)N[C@@H]1CC[C@@H]2[C@@H](C1)C[C@H]1C(=O)O[C@H](C)[C@H]1[C@H]2/C=C/c1ccc(-c2cccc(F)c2)cn1 | 5.12
9 | COc1ccc2c(c1OC)C(=O)O[C@@H]2C1c2c(cc3c(c2OC)OCO3)CCN1C (some centres undefined) | 1.37
10 | C[C@@H]1CC(=O)C2=C(C1)C[C@@H](O)[C@@]1(O)C2C(=O)c2cccc(O)c2[C@@H]1O (some centres undefined) | 1.2 ± 2
11 | Cc1nc2sccn2c(=O)c1CCN1CCC(=C(c2ccccc2)c2ccc(F)cc2)CC1 | -0.891
12 | COc1c(O)cccc1O | 3.67
13 | O=C(OCC1=CC(O)C2C=CO[C@@H](O[C@@H]3O[C@H](CO)[C@@H](O)[C@H](O)[C@H]3O)C12)c1ccccc1 (some centres undefined) | 0.548
14 | Cn1ccc2cc(NC(=O)Nc3cccnc3)ccc21 | -2.48
15 | CCC(C)C(O)C(C)(O)/C=C/C1=CC2=CC(=O)C(C)(O)C(O)C2CO1 (centres undefined) | 1.53
16 | CC(=O)OC/C=C(\CO)CC/C=C(\C)CC/C=C(\CC/C=C(\C)COC(C)=O)C(=O)O | 0.0582
17 | COC(=O)[C@H](c1ccccc1Cl)N1CCc2sccc2C1 | 2.48
18 | CC#CCOC(=O)C1=CCCN(C)C1 | 0.946
19 | COc1cc(O)cc(C2=C(C)CC(O)C2=O)c1 (centres undefined) | -0.518
20 | COc1cc(O)cc(O)c1C(=O)/C=C/c1ccccc1 | 0.64
21 | C[C@@H]([C@@H](O)c1ccc(O)cc1)N1CCC(O)(c2ccccc2)CC1 | -1.15
22 | CCCC(O)c1c(O)cccc1C1(O)CC(=O)C/C1=C\C(O)CC(=O)O (centres undefined) | 2.51
23 | C/C=C1/[C@H](O[C@@H]2O[C@H](CO)[C@@H](O)[C@H](O)[C@H]2O)OC=C2C(=O)O[C@@H]3C[C@@H](C(C)CO)[C@H](COC(=O)C[C@H]21)[C@H]3C (some centres undefined) | 1.19

Row | Compound | cell shape (Z-score)
24 | CCc1cc(Cl)c(OC)c(C(=O)NCC2CCCN2CC)c1O (centres undefined) | -0.609
25 | CC(C)(C)c1ccc(C=CC(=O)Nc2ccc3c(c2)OCCO3)cc1 | 2.06
26 | C[C@@H]1C[C@H]2[C@@H]3CCC4=CC(=O)C=C[C@]4(C)[C@@]3(F)[C@@H](O)C[C@]2(C)[C@@]1(O)C(=O)CO | -1.82
27 | O=c1c(-c2ccccc2)coc2cc(O)ccc12 | -0.511
28 | CCCCCCCCc1ccc(-c2ccc(C(=O)O)cc2)cc1 | 7.84
29 | Cc1nc(NC(=O)N2CCC[C@H]2C(N)=O)sc1-c1ccnc(C(C)(C)C(F)(F)F)c1 | -2.55
30 | COc1cc(/C(C)=C/C(C)=C\C(=O)O)oc(=O)c1C | 0.555 ± 2.6
31 | CCN1CCC[C@H]1CNC(=O)c1c(OC)ccc(Br)c1OC | 0.216
32 | CN(C)CCCSC(=N)N | 0.27
33 | Cc1cc2nc3c(=O)[nH]c(=O)nc-3n(C)c2cc1C=O | -7.12
34 | CC(=O)OCC(=O)[C@@]1(O)CCC2C3CCC4=CC(=O)CC[C@]4(C)C3C(=O)C[C@@]21C (some centres undefined) | -0.245
35 | c1ccc2c(CC3=NCCN3)cccc2c1 | 0.474
36 | Cc1nnc(NS(=O)(=O)c2ccc(N)cc2)s1 | 0.834
37 | CC(=O)N[C@@H](C(=O)O[C@H]1CCC(C)(C)[C@@H]2CCC3=C(COC3=O)[C@@]12C)C(C)C | -3.83
38 | COc1cc([C@@H]2c3cc4c(cc3C(OC3O[C@@H]5COC(C)O[C@H]5[C@H](O)[C@H]3O)C3COC(=O)[C@@H]32)OCO4)cc(OC)c1O (some centres undefined) | -1.12
39 | C[C@]12C=CC(=O)C=C1CCC1C3C[C@@H](O)[C@](O)(C(=O)CO)[C@@]3(C)C[C@H](O)[C@@]12F (some centres undefined) | -1.59
40 | O=c1c(O)c(-c2ccc(O)cc2)oc2cc(O)cc(O)c12 | 1.35
41 | COc1cc(O)cc(C)c1C(=O)OC1C(CO)OC(n2ccc(=O)[nH]c2=O)C1OC(C)=O (centres undefined) | 0.402 ± 3.5
42 | C[C@@H](Oc1cc(-n2cnc3ccc(CN4CCN(C)CC4)cc32)sc1C(N)=O)c1ccccc1C(F)(F)F | 3.02
43 | CC1CCC2(OC1)OC1CC3C4CC=C5C[C@@H](O)CC(O)[C@]5(C)C4CC[C@]3(C)C1C2C (some centres undefined) | -0.562
44 | O=c1c(O[C@@H]2OC[C@H](O)[C@H](O)[C@H]2O)c(-c2ccc(O)cc2)oc2cc(O)cc(O)c12 | 0.285 ± 2.6
45 | CC1=Nc2ccc(Cl)cc2S(=O)(=O)N1 | 2.3
46 | NC(=O)Nc1cc(-c2cccc(F)c2)sc1C(=O)N[C@H]1CCCNC1 | 11.9

Given with tabs: part of the list above.
Row	Compound	cell shape (Z-score)
21	C[C@@H]([C@@H](O)c1ccc(O)cc1)N1CCC(O)(c2ccccc2)CC1	-1.15
34	CC(=O)OCC(=O)[C@@]1(O)CCC2C3CCC4=CC(=O)CC[C@]4(C)C3C(=O)C[C@@]21C (some centres undefined)	-0.245
40	O=c1c(O)c(-c2ccc(O)cc2)oc2cc(O)cc(O)c12	1.35

Sorted by heavy-atom count (falling): some entries from above
Row | Compound | cell shape (Z-score)
42 | C[C@@H](Oc1cc(-n2cnc3ccc(CN4CCN(C)CC4)cc32)sc1C(N)=O)c1ccccc1C(F)(F)F | 3.02
44 | O=c1c(O[C@@H]2OC[C@H](O)[C@H](O)[C@H]2O)c(-c2ccc(O)cc2)oc2cc(O)cc(O)c12 | 0.285 ± 2.6
35 | c1ccc2c(CC3=NCCN3)cccc2c1 | 0.474

Remaining list, next part.

Row | Compound | cell shape (Z-score)
47 | COc1c(CC(=O)c2cc3c(cc2O)OC(C)(C)C(O)C3)ccc2c1C=CC(C)(C)O2 (centres undefined) | 0.402
48 | O=C(Nc1ncc([N+](=O)[O-])s1)c1cccs1 | 0.677
49 | COc1cc(C(=O)OCC2(O)COC(OCC3OC(Oc4c(OC)cc(CO)cc4OC)C(O)C(O)C3O)C2O)cc(OC)c1O (centres undefined) | 0.862
50 | CC(C)N(CCCNC(=O)Nc1ccc(C(C)(C)C)cc1)CC1OC(n2ccc3c(N)ncnc32)[C@H](O)[C@@H]1O (some centres undefined) | 3.91
51 | CC(C)N1C(=O)S/C(=C/c2ccc(Sc3nc4ccccc4[nH]3)o2)C1=O | 1.64
52 | C/C=C(\CO)C(=O)O[C@H]1[C@H](O)[C@@H](C(=O)OC)O[C@@H]2C[C@H]3OC(n4cnc5c(N)ncnc54)[C@H](OC)[C@H]3O[C@]21O (some centres undefined) | 1.87 ± 0.22
53 | COC(=O)C(NC(=O)c1cccc(NC=O)c1O)C(C)O (centres undefined) | 3.11
54 | Oc1ccc(OCc2ccccc2)cc1 | 4.59
55 | CC1(C)CC(=O)c2c(C(F)(F)F)nn(-c3ccc(C(N)=O)c(N[C@H]4CC[C@H](O)CC4)c3)c2C1 | 1.84
56 | O=C(O)C1=CCCN(CCON=C(c2ccccc2)c2ccccc2)C1 | 1.06
57 | CN(C)C(=O)n1nnnc1Cc1ccc(-c2ccccc2)cc1 | 12.8
58 | O=C(Cc1ccccc1)Nc1nc2ccc(Cl)cc2c2nc(-c3ccco3)nn12 | 0.721
59 | C[C@@H](NC(=O)/C(C#N)=C\c1ccc(O)c(O)c1)c1ccccc1 | 0.038
60 | CC(N/C(=N/C#N)Nc1ccncc1)C(C)(C)C (centres undefined) | 2.86
61 | CC1OC(OC2C(O)C(CO)OC(O[C@H]3CC[C@@]4(C)C(CC[C@]5(C)C4CC=C4C6CC(C)(C)CC[C@]6(C(=O)OC6OCC(OC7OCC(O)C(O)C7O)C(O)C6O)CC[C@]45C)C3(C)C)C2O)C(O)C(OC2OCC(O)(CO)C2O)C1O (some centres undefined) | -0.504
62 | CC(C)C1NC(=O)C(CC2(O)c3ccccc3N3C(=O)C(Cc4ccccc4)NC32)NC1=O (centres undefined) | 2.65
63 | CCCCN1CCC(CCC(=O)c2cc(Cl)c(N)cc2OC)CC1 | 2.08
64 | O=C(O)c1cc(N(Cc2ccccc2O)Cc2ccccc2O)ccc1O | 1.4
65 | CC[C@@H]1CN2C(=O)N(C)c3nc(-c4ccccc4)[nH]c3C2=N1 | 1.33
66 | CC1OC(OC2C(O)C(C)OC(OCC3OC(OC4C(C)OC(Oc5cc(O)c6c(=O)c(O)c(-c7ccc(O)c(O)c7)oc6c5)C(O)C4O)C(O)C(O)C3OC(=O)/C=C/c3ccc(O)cc3)C2O)C(O)C(O)C1O (centres undefined) | 1.33 ± 0.17
67 | O=c1c(O[C@@H]2O[C@H](CO)[C@@H](O)[C@H](O)[C@H]2O)c(-c2ccc(O)cc2)oc2cc(O)cc(O)c12 | 1.96
68 | CCC(=O)NCC[C@@H]1CCc2ccc3c(c21)CCO3 | 0.718
69 | C[C@H]1C(=O)N2c3ccccc3[C@@]3(O)C[C@@H]4C(=O)N[C@@](C)(c5nc6ccccc6c(=O)n54)N1[C@@H]23 | 2.16

Row | Compound | cell shape (Z-score)
70 | CC1=CC(=O)CC(C)(C)[C@@]1(O)/C=C/C(C)O[C@@H]1O[C@H](CO)[C@@H](O)[C@H](O)[C@H]1O (some centres undefined) | 0.399
71 | COc1ccc(CCC(=O)c2ccc(OC)cc2O)cc1 | 2.54
72 | CCCCCCCCC[C@@H](O)CC(=O)CCc1ccc(O)c(OC)c1 | 0.92
73 | CC(C)=CCc1c(O)ccc2ccc(=O)oc12 | 0.548
74 | CC/C=C\[C@H](O)[C@H](O)C1=C(C)C(=O)[C@]2(O1)C(=O)N[C@@](OC)(C(=O)c1ccccc1)C2O (some centres undefined) | -1.34
75 | CC(C)NC[C@@H](O)COc1cccc2ccccc12 | -1.95
76 | COC(=O)C1=C(C)NC(C)=C(C(=O)OC)C1c1ccccc1[N+](=O)[O-] | 1.68
77 | C[C@]1(CO)CN(c2cc(C(=O)Nc3ccc4c(c3)-c3c(c(C(N)=O)nn3-c3ccc(F)cc3)CC4)c(Cl)cn2)C[C@@]1(C)CO | 5.22
78 | CC(NCCC(c1ccccc1)c1ccccc1)c1ccccc1 (centres undefined) | 5.83
79 | O=C(O)c1cn(-c2ccc(F)cc2)c2cc(Cl)c(F)cc2c1=O | -3.88
80 | c1ccc2c(Cc3c[nH]c4ccccc34)c[nH]c2c1 | 0.117
81 | O=C1c2ccccc2C(=O)c2c1ccc(O)c2O | -0.12
82 | O=C(/C=C/c1ccc(O)cc1)OC[C@H]1O[C@@H](Oc2cc(O)c3c(c2)OC(c2ccc(O)cc2)CC3=O)[C@H](O)[C@@H](OC(=O)/C=C/c2ccc(O)cc2)[C@@H]1O (some centres undefined) | -0.756
83 | COc1cc(OC)c2ccc(=O)oc2c1CC(O)C(C)(C)O (centres undefined) | 1.01 ± 1.3
84 | CC(C)OC(=O)c1cn(Cc2c(F)cccc2F)c2sc(-c3ccc(NC(=O)C(C)C)cc3)c(CN(C)Cc3ccccc3)c2c1=O | 0.269
85 | O=C(OCCN1CCOCC1)C1(c2ccccc2)CCCCC1 | 3.82
86 | Cn1c(=O)c2nc(C3CCCC3)[nH]c2n(C)c1=O | 2.94
87 | c1ccc(CC2=NCCN2)cc1 | 4.43
88 | CC1c2ccccc2CN1CC1=NCCN1 (centres undefined) | 0.991
89 | COc1cc([C@@H]2[C@H]3CO[C@@]4(O)C(=O)[C@@H]2C=C([C@H]2Oc5cc(O)cc(O)c5C(=O)[C@@H]2O)[C@@H]34)ccc1O | 1.58
